These are yes or no findings as the source states them, for the method shown. In cells and extracts the contact can be indirect. These calls come from enrichment with a bait or labelling near it, and not all partners need be listed. Tags and fused reporters may be left off the sequences shown.
T1: USP15 immunoprecipitated with a FLAG antibody from AML12 cells (bait of the interactome analysis) (UniProt Q8R5H1)
T1 sequence: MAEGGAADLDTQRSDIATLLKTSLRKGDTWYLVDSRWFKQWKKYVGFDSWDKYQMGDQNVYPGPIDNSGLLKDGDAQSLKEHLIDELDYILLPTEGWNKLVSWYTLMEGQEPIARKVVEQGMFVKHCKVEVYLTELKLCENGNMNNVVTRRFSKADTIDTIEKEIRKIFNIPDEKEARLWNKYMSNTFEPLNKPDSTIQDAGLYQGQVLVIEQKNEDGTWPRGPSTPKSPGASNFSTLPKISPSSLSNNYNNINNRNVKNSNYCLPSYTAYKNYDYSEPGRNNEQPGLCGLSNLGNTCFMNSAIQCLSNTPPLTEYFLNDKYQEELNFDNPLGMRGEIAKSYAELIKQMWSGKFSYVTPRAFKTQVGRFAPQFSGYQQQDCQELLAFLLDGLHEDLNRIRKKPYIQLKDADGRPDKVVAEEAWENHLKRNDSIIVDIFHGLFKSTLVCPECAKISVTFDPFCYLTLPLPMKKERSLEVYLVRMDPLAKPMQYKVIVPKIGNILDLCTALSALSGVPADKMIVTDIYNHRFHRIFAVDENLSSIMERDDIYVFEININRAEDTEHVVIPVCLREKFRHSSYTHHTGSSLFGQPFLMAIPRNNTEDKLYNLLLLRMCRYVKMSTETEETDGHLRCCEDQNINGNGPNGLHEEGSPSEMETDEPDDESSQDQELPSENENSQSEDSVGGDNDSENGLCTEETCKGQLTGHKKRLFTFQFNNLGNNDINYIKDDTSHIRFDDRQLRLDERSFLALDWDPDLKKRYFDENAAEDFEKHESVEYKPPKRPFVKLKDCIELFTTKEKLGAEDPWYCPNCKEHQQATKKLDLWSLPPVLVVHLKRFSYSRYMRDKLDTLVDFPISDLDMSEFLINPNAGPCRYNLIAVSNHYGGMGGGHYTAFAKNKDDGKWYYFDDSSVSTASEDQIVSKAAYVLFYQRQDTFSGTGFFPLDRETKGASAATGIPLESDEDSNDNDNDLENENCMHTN

B1: FABP4 (endogenous, AML12 cells) (protein, UniProt P04117 1-132)
chain: MCDAFVGTWKLVSSENFDDYMKEVGVGFATRKVAGMAKPNMIISVNGDLVTIRSESTFKNTEISFKLGVEFDEITADDRKVKSIITLDGGALVQVQKWDGKSTTIKRKRDGDKLVVECVMKGVTSTRVYERA
B2: Perilipin2 (endogenous, AML12 cells) (protein, UniProt P43883 1-425)
chain: MAAAVVDPQQSVVMRVANLPLVSSTYDLVSSAYVSTKDQYPYLRSVCEMAEKGVKTVTSAAMTSALPIIQKLEPQIAVANTYACKGLDRMEERLPILNQPTSEIVASARGAVTGAKDVVTTTMAGAKDSVASTVSGVVDKTKGAVTGSVERTKSVVNGSINTVLGMVQFMNSGVDNAITKSELLVDQYFPLTQEELEMEAKKVEGFDMVQKPSNYERLESLSTKLCSRAYHQALSRVKEAKQKSQETISQLHSTVHLIEFARKNMHSANQKIQGAQDKLYVSWVEWKRSIGYDDTDESHCVEHIESRTLAIARNLTQQLQTTCQTVLVNAQGLPQNIQDQAKHLGVMAGDIYSVFRNAASFKEVSDGVLTSSKGQLQKMKESLDEVMDYFVNNTPLNWLVGPFYPQSTEVNKASLKVQQSEVKAQ

Biological target: T1, USP15 immunoprecipitated with a FLAG antibody from AML12 cells (bait of the interactome analysis)
Assay: affinity purification with mass spectrometry; USP15 immunoprecipitation (FLAG antibody) from AML12 cells; eluates separated by SDS-PAGE, in-gel digestion, LC-MS/MS

| Binder | binding |
| --- | --- |
| B1 | binds |
| B2 | binds |

Source: paper PMC10394025
